Measurements reported in PubChem BioAssay AID1224830 (NIAID, 2016)

Screen: 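Genes whose knock-down alters the TNF-alpha reporter response to LPS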 (primary screen)
System: human THP-1 monocytic leukaemia cells, TNF dual-luciferase reporter clone, PMA-differentiated to macrophage-like cells
Reagents: siRNA pool against human genes, 50 nM
Duration: LPS for 4 h, given about 3 days after siRNA transfection
Challenge: bacterial LPS (TLR4 ligand), 10 ng/ml
Read-out: 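TNF firefly reporter luminescence divided by renilla, normalised to the plate median, then turned into a robust z-score for each replicate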
Scale: TNF reporter robust z-score: higher = stronger TNF reporter response to LPS
Rule for the call: 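Each well counts as active if its z-score is over 2.8 or under -1.5; controls are left without a call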
The whole screen tested about 18,000 reagents; shown is an unselected part. About 2,900 of all reagents (16%) count as active. 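Calls are made per well; low scores hint the gene aids the LPS response, high scores that it dampens it.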 Repeated entries: four replicate wells of each siRNA pool.

| Gene | TNF reporter robust z-score | Call |
| --- | --- | --- |
| RFLNA (refilin A) | 0.53 | inactive |
| RFLNA (refilin A) | -0.54 | inactive |
| RFLNA (refilin A) | 0.76 | inactive |
| RFLNA (refilin A) | 0.17 | inactive |
| AMELY (amelogenin Y-linked) | -0.84 | inactive |
| AMELY (amelogenin Y-linked) | 0.19 | inactive |
| AMELY (amelogenin Y-linked) | -0.72 | inactive |
| AMELY (amelogenin Y-linked) | 0.08 | inactive |
| GPR21 (G protein-coupled receptor 21) | 0.21 | inactive |
| GPR21 (G protein-coupled receptor 21) | 0 | inactive |
| GPR21 (G protein-coupled receptor 21) | -0.09 | inactive |
| GPR21 (G protein-coupled receptor 21) | 0.16 | inactive |
| FAM227B (family with sequence similarity 227 member B) | 0.51 | inactive |
| FAM227B (family with sequence similarity 227 member B) | 0.26 | inactive |
| FAM227B (family with sequence similarity 227 member B) | 0.74 | inactive |
| FAM227B (family with sequence similarity 227 member B) | 0.22 | inactive |
| SMUG1 | 1.2 | inactive |
| SMUG1 | 1.65 | inactive |
| SMUG1 | 1.58 | inactive |
| SMUG1 | 1.32 | inactive |
| LRATD2 (LRAT domain containing 2) | -1.05 | inactive |
| LRATD2 (LRAT domain containing 2) | -1.01 | inactive |
| LRATD2 (LRAT domain containing 2) | -1.25 | inactive |
| LRATD2 (LRAT domain containing 2) | -1.24 | inactive |
| RGS7BP (regulator of G protein signaling 7 binding protein) | -0.83 | inactive |
| RGS7BP (regulator of G protein signaling 7 binding protein) | -0.84 | inactive |
| RGS7BP (regulator of G protein signaling 7 binding protein) | -1.01 | inactive |
| RGS7BP (regulator of G protein signaling 7 binding protein) | -0.74 | inactive |
| LPAR6 (lysophosphatidic acid receptor 6) | -1.19 | inactive |
| LPAR6 (lysophosphatidic acid receptor 6) | -0.18 | inactive |
| LPAR6 (lysophosphatidic acid receptor 6) | -1.05 | inactive |
| LPAR6 (lysophosphatidic acid receptor 6) | -0.71 | inactive |
| HOXA11 (homeobox A11) | 2.09 | inactive |
| HOXA11 (homeobox A11) | 0.9 | inactive |
| HOXA11 (homeobox A11) | 1.31 | inactive |
| HOXA11 (homeobox A11) | 1.92 | inactive |
| GPRASP3 | 0.97 | inactive |
| GPRASP3 | 0.64 | inactive |
| GPRASP3 | 0.13 | inactive |
| GPRASP3 | 1.16 | inactive |
| GRPEL2 (GrpE like 2, mitochondrial) | -0.33 | inactive |
| GRPEL2 (GrpE like 2, mitochondrial) | 0.06 | inactive |
| GRPEL2 (GrpE like 2, mitochondrial) | -0.49 | inactive |
| GRPEL2 (GrpE like 2, mitochondrial) | 0.26 | inactive |
| RUVBL2 (RuvB like AAA ATPase 2) | 1.08 | inactive |
| RUVBL2 (RuvB like AAA ATPase 2) | 0.95 | inactive |
| RUVBL2 (RuvB like AAA ATPase 2) | -0.89 | inactive |
| RUVBL2 (RuvB like AAA ATPase 2) | 0.3 | inactive |

8 entries from above in another layout.
Gene,TNF reporter robust z-score,Call
"GRPEL2 (GrpE like 2, mitochondrial)",-0.33,inactive
"GRPEL2 (GrpE like 2, mitochondrial)",0.06,inactive
"GRPEL2 (GrpE like 2, mitochondrial)",-0.49,inactive
"GRPEL2 (GrpE like 2, mitochondrial)",0.26,inactive
RUVBL2 (RuvB like AAA ATPase 2),1.08,inactive
RUVBL2 (RuvB like AAA ATPase 2),0.95,inactive
RUVBL2 (RuvB like AAA ATPase 2),-0.89,inactive
RUVBL2 (RuvB like AAA ATPase 2),0.3,inactive
